Tests used:
[1] = Chronic Daily Headache trial, plasma mediators after 12-week LA lowering diet; set-up: species or system human; conditions: 12 weeks; patients with chronic daily headache
[2] = UPLC-MS/MS quantitation of mediators in psoriatic lesion and control human skin; conditions: endogenous level; for percent as free acid: control human skin; for free concentration in psoriatic lesions compared to control skin: free acid pool; for share found in the esterified lipid pool: human skin

Row | SMILES | plasma concentration after LA lowering dietary intervention [1] | percent as free acid [2] | free concentration in psoriatic lesions compared to control skin [2] | share found in the esterified lipid pool [2]
1 | CCCCCC(O)/C=C/C1OC1CCCCCCCC(=O)O (stereo not drawn) [13H-9,10E-LA, 13-hydroxy(H)-9,10-trans-epoxy-(E)-octadecenoate] | significantly decreased | 0.05% | 9 fold | > 99.5%
2 | CCCCCC1OC1/C=C/C(=O)CCCCCCCC(=O)O (stereo not drawn) [9K-12,13E-LA, 9-keto(K)-12,13-trans-epoxy-(E)-octadecenoate] |  |  | > 30 fold | > 99%
3 | CCCCCC1OC1C(O)/C=C\CCCCCCCC(=O)O (stereo not drawn) [11H-12,13E-LA, 11-hydroxy(H)-12,13-trans-epoxy-(E)-octadecenoate] | significantly decreased | 44.4% | > 6 fold | 

From US12479812B2, “Fatty acid derivatives and their use” (THE UNITED STATES OF AMERICA, as represented by the …, priority 2017, dated 2025)
